The record followed here is patent WO2018235964A1.

Chains of the proteins cited; added tags and fusions are not shown. Residues count along the entry.
UniProt P01137, residues 279-390: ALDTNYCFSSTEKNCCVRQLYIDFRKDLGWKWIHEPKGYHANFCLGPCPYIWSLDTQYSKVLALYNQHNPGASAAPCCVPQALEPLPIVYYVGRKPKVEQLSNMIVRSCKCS

Assay [1] addresses TGF-β1 protein (human) (UniProt P01137). Put plainly: indirect ELISA, hybridoma supernatant on TGF-β1 protein-coated plates. (In general: An ELISA detects its analyte on a solid surface through an enzyme-linked reagent.)
Assay [2] has the same target. Nature of the assay: western blot on lysate of TGF-β1 overexpressing cells or tissue, 5x diluted hybridoma supernatant.

These are yes or no findings as the source states them, for the method shown. Some results given as binding are weak or reduced against the parent protein; the word gives no strength.

B1: mouse anti-human active TGF-β1 antibody clone 4D10 (antibody, IgG1, V domains shown)
VH: EVKLQQSGTVLARPGTSVKMSCKASGYTFSNYWMHWVKQRPGQGLEWIGAIYPGNSDTRFNQKFKGKAKLTAVTSASTAYMDLSSLTDEDSAVYYCTGYSNYEAGAMDYWGQGTSVTVSS
VL: DIVMTQSPSSRAVSSGEKVTMSCKSSQSLLNSRTRKNYLAWYQQKPGQSLKLLIYWASTRESGVPDRFTGSGSGTDFTLTISGVQAEDLAVYYCQQSYHLPTFGGGTKLEIKR
Regarding B1, the binding result in assay [1] and in assay [2] was “binds” in each case.

B2: mouse anti-human active TGF-β1 antibody clone 2H4 (antibody, IgG1, V domains shown)
VH: EVKLQQSGTVLARPGTSVKMSCKASGYTFSNYWMHWVKQRPGQGLEWIGAIYPGNSDTRFNQKFKGKAKLTAVTSASTAYMDLSSLTDEDSAVYYCTGYSNYEAGAMDYWGQGTSVTVSS
VL: DIVMTQSPSSLAVSSGEKVTMSCKSSQSLLNSRTRKNYLAWYQQKPGQSPKLLIYWASTRESGVPDRFTGSGSGTDFTLTISGVQAEDLAVYYCQQSYHLPTFGGGTKLEIKR
As to B2, the binding result in assay [1] and in assay [2] was “binds” throughout.
